Measured values from article PMC12516131.
These are yes or no findings as the source states them, for the method shown. Tags and fused reporters may be left off the sequences shown.

Target: eGFP-POK2 2510-2771-8xHis (Arabidopsis thaliana) (UniProt Q27IK6)
Test: native gel or EMSA; blue native PAGE, 4-12% Tris-Glycine gels, 100 ng of each protein per lane, anti-GFP western blot and silver stain; both purified

- binding: no binding
B1: eGFP-POK2 2510-2771-8xHis (domain or fragment, UniProt Q27IK6 2510-2771)
chain: DSRERDLEVSHLKQQLNEYNEKRQGWIEEIEGKQTELVTAQIKLEEHRQYQQLLKKENELLKKENFSHKIKVMELEGEVKKLSSHQNPEWRTRDQARIKEENNVLKLQLDELNLKLRRADVSVSRAKEELAFYRASSVKNPHSNFDKTHQLSTKLKETEEDRMQLAQELLSLCTSILKAAGVTGEDFTDINPEVAEEALEQLKTKLGLLESEVHHFRLKGKAKSRRSRNPERKMPSMPSPRRSWSQSPRSMSQVPFFSSLDR
